PubChem BioAssay AID1259254, NCATS – 2017
This is one part, drawn at random, of about 59,000 deposited reagents. Of all reagents, about 1,550 (2.6%) were called active. 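G2 share is only a proxy for re-replication; each gene was hit by three separate siRNAs, and active genes were retested.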 Raw values are not corrected between plates. Unmarked entries are inactive. Reagents against one gene are numbered here. The record does not give: the amount of reagent.

Aim: 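Gene knock-downs that lead to re-replication, shown by excess G2 DNA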 (primary screen)
System: human HCT116 colorectal cancer cells
Reagents: single siRNA against human genes
Duration: 3 days
Measured: 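Nuclei stained with Hoechst and imaged; cell-cycle phase assigned by DNA content; G2 share scaled per plate, non-targeting siRNA 0%, GMNN siRNA 100%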
Scale: G2 robust z-score and G2 cells, % of GMNN control: higher = more G2 cells, more excess DNA replication; raw share of cells in G2: higher = larger share of cells with G2 DNA content
Rule for the call: 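An siRNA counts as active if its G2 robust z-score lies at least 5 MADs above the screen median; here such calls match roughly 38% of GMNN control or more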

G2 robust z-score	G2 cells, % of GMNN control	raw share of cells in G2 (%)	target	reagent
-0.875	-3.19	1.67	BIN2	1
0.687	7.8	9.43	BIN2	2
0.609	7.25	5.91	BIN2	3
2.04	17.3	10.6	HMGCR	1
3.51	27.7	15.1	HMGCR	2
1.58	14.1	11.1	HMGCR	3
-0.955	-3.75	3.08	FAABTP	1
0.666	7.65	7.31	FAABTP	2
-0.092	2.32	3.88	FAABTP	3
-1.04	-4.35	3.48	TEP1	1
-0.187	1.65	5.31	TEP1	2
0.377	5.62	6.01	TEP1	3
-0.22	1.42	3.58	MUC5B	1
-0.51	-0.62	2.95	MUC5B	2
1.5	13.5	8.27	MUC5B	3
-0.397	0.175	3.87	NANS	1
1.48	13.4	12	NANS	2
1.25	11.8	8.59	NANS	3
0.0025	2.98	5.38	EVA1B	1
-0.891	-3.3	2.08	EVA1B	2
0.124	3.84	6	EVA1B	3
-0.957	-3.77	2.85	DRC3	1
6.88 (active)	51.4	18.7	DRC3	2
3.56	28	10.9	DRC3	3
-0.715	-2.07	2.6	DKK3	1
0.701	7.9	6.87	DKK3	2
-0.00985	2.9	5.64	DKK3	3
0.82	8.74	7.79	PRR12	1
3.28	26.1	16.9	PRR12	2
2.81	22.7	10.2	PRR12	3
1.79	15.5	9.31	DYNAP	1
3.31	26.2	13.2	DYNAP	2
-0.309	0.794	3.51	DYNAP	3
-0.221	1.41	6.05	USP29	1
-0.203	1.54	5.45	USP29	2
-0.756	-2.35	3.03	USP29	3
-0.473	-0.357	4.68	PTPRR	1
-0.286	0.955	4.59	PTPRR	2
-0.49	-0.479	3.35	PTPRR	3

Records listed above marked active, once more:
G2 robust z-score	G2 cells, % of GMNN control	raw share of cells in G2 (%)	target	reagent
6.88 (active)	51.4	18.7	DRC3	2

The list goes on.
G2 robust z-score	G2 cells, % of GMNN control	raw share of cells in G2 (%)	target	reagent
0.522	6.64	6.1	GTF2A2	1
-0.199	1.57	5.58	GTF2A2	2
0.651	7.55	5.85	GTF2A2	3
0.849	8.94	5.06	PCNX4	1
-0.0687	2.48	5.66	PCNX4	2
3.16	25.2	15.9	PCNX4	3
2.05	17.4	9.87	FAM124A	1
-0.663	-1.7	2.55	FAM124A	2
-0.082	2.39	3.96	FAM124A	3
-1.06	-4.49	1.71	GOLPH3L	1
-0.808	-2.72	3.48	GOLPH3L	2
-0.768	-2.44	3.13	GOLPH3L	3
-0.398	0.167	4.41	CPNE5	1
-0.677	-1.79	3.6	CPNE5	2
-0.43	-0.0573	3.01	CPNE5	3
-0.767	-2.43	4.23	TMCC2	1
0.314	5.18	6.11	TMCC2	2
-0.516	-0.663	3.16	TMCC2	3
-1.11	-4.81	2.2	AMBP	1
6.08 (active)	45.7	20.3	AMBP	2
1.03	10.2	8.71	AMBP	3
-0.512	-0.632	5.04	ALDH4A1	1
0.207	4.42	6.55	ALDH4A1	2
0.0906	3.61	6	ALDH4A1	3
-0.0762	2.43	3.91	PRR5	1
3.42	27	14.9	PRR5	2
-0.667	-1.72	3.42	PRR5	3
-1.18	-5.33	2.9	STON1	1
-0.421	0.00539	4.14	STON1	2
-0.459	-0.259	3.08	STON1	3
0.233	4.61	5.06	PRDM2	1
-0.714	-2.06	5.07	PRDM2	2
-0.781	-2.52	2.28	PRDM2	3
-0.967	-3.83	3.43	LDB1	1
1.12	10.8	8.19	LDB1	2
2.06	17.5	9.53	LDB1	3
0.0566	3.37	6.07	CHST1	1
-0.805	-2.7	3.74	CHST1	2
-0.116	2.15	6.02	CHST1	3
1.26	11.9	9.35	HOXB1	1
1.05	10.4	9.63	HOXB1	2
0.112	3.76	5.58	HOXB1	3
-1.17	-5.27	1.67	DRC5	1
0.537	6.75	5.44	DRC5	2
2.44	20.1	9.62	DRC5	3
-0.534	-0.793	2.98	AP1S2P2	1
-0.581	-1.12	2.76	AP1S2P2	2
0.193	4.32	4.06	AP1S2P2	3
